# Experimental data: patent US20030165841, “Use of phosphorothiolate polynucleotides in ligating nucleic acids” (published 2003)
# Protein sequences can lack the tags named with them.
# Molecular target: T1, Topo65 (human topoisomerase I fragment, residues 215-765) (Homo sapiens) (UniProt P11387)
# T1 sequence: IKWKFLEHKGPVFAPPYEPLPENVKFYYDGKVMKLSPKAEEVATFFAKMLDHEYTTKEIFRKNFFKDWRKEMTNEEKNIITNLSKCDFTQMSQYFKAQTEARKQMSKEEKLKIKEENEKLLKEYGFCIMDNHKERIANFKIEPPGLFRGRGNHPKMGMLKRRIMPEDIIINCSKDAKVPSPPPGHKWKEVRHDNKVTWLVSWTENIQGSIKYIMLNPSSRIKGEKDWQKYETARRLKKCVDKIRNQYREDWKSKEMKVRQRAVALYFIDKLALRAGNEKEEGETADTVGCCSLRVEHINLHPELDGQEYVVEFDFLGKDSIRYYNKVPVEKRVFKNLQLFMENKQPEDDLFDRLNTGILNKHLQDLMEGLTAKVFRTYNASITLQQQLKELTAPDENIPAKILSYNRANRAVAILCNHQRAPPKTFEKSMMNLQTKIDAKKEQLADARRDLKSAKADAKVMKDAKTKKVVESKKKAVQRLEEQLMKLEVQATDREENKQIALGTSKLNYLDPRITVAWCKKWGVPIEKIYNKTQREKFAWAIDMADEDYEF
# Experiment: enzyme reaction in vitro
# Conditions: AS strand 5' DMT on or off, cleavage and ligation to about 50 and 70 bp products, 600 mM NaCl added, sequence confirmed, purified recombinant protein
Sequence,activity on this sequence (5'-bridging phosphorothiolate 2 bases from 3' end of top strand),activity on this sequence (5'-bridging phosphorothiolate 4 bases from 3' end of top strand)
AATTCGCGGCCGCAAAAAGACTTCG / CGAAGTCTTTTTGCGGCCGCG [TCRIBstBS/TCRIBstBAS],active,–
AATTCGCGGCCGCAAAAAGACTTGATC / GATCAAGTCTTTTTGCGGCCGCG [TCRIBamS/TCRIBamAS],–,active
